PubChem BioAssay AID1259308, NCATS | 2017

- Assay: 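Candidate targets for better recombinant protein yield in mammalian cells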 (primary screen)
- System: human HEK293 embryonic kidney cells stably expressing firefly luciferase (HEK-CMV-Luc2-Hygro)
- Reagent: single siRNA against human genes, 0.8 pmol siRNA per well
- Time to read-out: 72 h
- Read-out: 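Luciferase light (ONE-Glo) measured on one replicate plate set and viability (CellTiter-Glo) on the other, scaled to a negative control siRNA, with robust z-scores and luciferase per cell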
- Direction: total luciferase, z-score and total luciferase, % of control: higher = more reporter protein produced; luciferase per cell, z-score: higher = more reporter output per viable cell; viable cells, % of control: higher = more viable cells
- Hit rule: 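Active when the median/MAD z-score for overall luciferase is greater than 3; a gene was taken forward for validation with new siRNAs if at least two of its three siRNAs passed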
- Meaning of the calls: active = raised luciferase; inactive = no rise
The deposit covers about 59,000 reagents; this is a part drawn at random. About 1,510 of them (2.6%) count as active. 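Calls use total luciferase alone and ignore viability, so some active siRNAs may act by altering cell number.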 The numbers tell different reagents against one gene apart.

gene	reagent no.	total luciferase, z-score	total luciferase, % of control	luciferase per cell, z-score	viable cells, % of control	call
NNAT (neuronatin)	1	0.525	92.3	0.536	89.6	inactive
NNAT (neuronatin)	2	-0.878	64.4	-1.54	108	inactive
NNAT (neuronatin)	3	0.016	82.2	-0.281	98.9	inactive
AGO1 (argonaute RISC component 1)	1	-1.18	58.4	-0.977	84.4	inactive
AGO1 (argonaute RISC component 1)	2	0.853	98.8	0.663	92.8	inactive
AGO1 (argonaute RISC component 1)	3	-0.833	65.3	-0.0536	74	inactive
ZNF19 (zinc finger protein 19)	1	-0.905	63.9	-0.0152	71.7	inactive
ZNF19 (zinc finger protein 19)	2	-0.292	76.1	0.182	81	inactive
ZNF19 (zinc finger protein 19)	3	-1.79	46.3	-1.52	77.2	inactive
EIF2B1 (eukaryotic translation initiation factor 2B subunit alpha)	1	-0.0594	80.7	-0.209	95.3	inactive
EIF2B1 (eukaryotic translation initiation factor 2B subunit alpha)	2	-0.833	65.3	-1.12	98.1	inactive
EIF2B1 (eukaryotic translation initiation factor 2B subunit alpha)	3	0.223	86.3	0.27	89.8	inactive
CDK2AP1 (cyclin dependent kinase 2 associated protein 1)	1	0.813	98.1	1.02	83.7	inactive
CDK2AP1 (cyclin dependent kinase 2 associated protein 1)	2	0.563	93.1	-0.331	113	inactive
CDK2AP1 (cyclin dependent kinase 2 associated protein 1)	3	-0.292	76.1	-0.8	105	inactive
AQP8 (aquaporin 8)	1	-0.176	78.4	-0.495	99.8	inactive
AQP8 (aquaporin 8)	2	-2.18	38.6	-2.92	93	inactive
AQP8 (aquaporin 8)	3	-0.751	67	0.291	69.3	inactive
TREM1 (triggering receptor expressed on myeloid cells 1)	1	-0.268	76.6	-0.125	88.4	inactive
TREM1 (triggering receptor expressed on myeloid cells 1)	2	0.633	94.5	0.86	84.2	inactive
TREM1 (triggering receptor expressed on myeloid cells 1)	3	2.26	127	1.56	94	inactive
ZNF710 (zinc finger protein 710)	1	0.011	82.1	0.472	81	inactive
ZNF710 (zinc finger protein 710)	2	0.958	101	0.455	100	inactive
ZNF710 (zinc finger protein 710)	3	0.983	101	1.01	86.9	inactive
FKBP5 (FKBP prolyl isomerase 5)	1	-0.0351	81.2	0.315	83.5	inactive
FKBP5 (FKBP prolyl isomerase 5)	2	0.25	86.9	-0.395	108	inactive
FKBP5 (FKBP prolyl isomerase 5)	3	-2.06	40.9	-3.32	109	inactive
PCYOX1L (prenylcysteine oxidase 1 like)	1	-1.6	50	-1.39	80.6	inactive
PCYOX1L (prenylcysteine oxidase 1 like)	2	-0.754	66.9	0.0193	74.4	inactive
PCYOX1L (prenylcysteine oxidase 1 like)	3	0.74	96.6	0.674	90.4	inactive
C10orf120 (chromosome 10 open reading frame 120)	1	-0.599	70	-0.149	81.3	inactive
C10orf120 (chromosome 10 open reading frame 120)	2	-0.669	68.6	-0.854	95.9	inactive
C10orf120 (chromosome 10 open reading frame 120)	3	0.876	99.3	0.000301	111	inactive
UFM1 (ubiquitin fold modifier 1)	1	1.47	111	2.41	65.9	inactive
UFM1 (ubiquitin fold modifier 1)	2	0.119	84.3	0.093	91.9	inactive
UFM1 (ubiquitin fold modifier 1)	3	-0.673	68.5	-0.618	90.1	inactive
INTS13 (integrator complex subunit 13)	1	-0.781	66.4	-1.19	102	inactive
INTS13 (integrator complex subunit 13)	2	1.76	117	1.01	99.9	inactive
INTS13 (integrator complex subunit 13)	3	3.98	161	2.14	102	active
NR1D2 (nuclear receptor subfamily 1 group D member 2)	1	1.44	111	1.29	88.1	inactive
NR1D2 (nuclear receptor subfamily 1 group D member 2)	2	-0.224	77.4	-0.357	95.1	inactive
NR1D2 (nuclear receptor subfamily 1 group D member 2)	3	-0.12	79.5	-0.625	105	inactive
IMMT (inner membrane mitochondrial protein)	1	-0.147	79	-0.333	96.3	inactive
IMMT (inner membrane mitochondrial protein)	2	-0.708	67.8	-0.389	84	inactive
IMMT (inner membrane mitochondrial protein)	3	-0.927	63.4	-1.16	96.1	inactive
ZNF333 (zinc finger protein 333)	1	-0.129	79.3	0.123	85.8	inactive
ZNF333 (zinc finger protein 333)	2	0.0364	82.6	0.0638	90.8	inactive
ZNF333 (zinc finger protein 333)	3	1.6	114	1.82	78.7	inactive
ADAR (adenosine deaminase RNA specific)	1	-0.746	67	-0.122	77.4	inactive
ADAR (adenosine deaminase RNA specific)	2	-0.384	74.3	-0.721	100	inactive
ADAR (adenosine deaminase RNA specific)	3	-1.28	56.5	-1.9	104	inactive
MRPL54 (mitochondrial ribosomal protein L54)	1	-0.729	67.4	-1.22	104	inactive
MRPL54 (mitochondrial ribosomal protein L54)	2	-0.466	72.6	-0.643	96.1	inactive
MRPL54 (mitochondrial ribosomal protein L54)	3	-0.122	79.5	-0.046	89.9	inactive
PGGT1B (protein geranylgeranyltransferase type I subunit beta)	1	-1.11	59.9	-2.02	114	inactive
PGGT1B (protein geranylgeranyltransferase type I subunit beta)	2	0.616	94.1	-0.0717	107	inactive
PGGT1B (protein geranylgeranyltransferase type I subunit beta)	3	0.151	84.9	-0.252	101	inactive
